In test [1] the target is beta myosin heavy chain (M21665) (human) (UniProt P12883). Briefly: yeast two-hybrid screen, AAD45360 as bait against a human heart cDNA library.
Test [2] deals with α-actinin 2 (M86406) (human) (UniProt P35609). Put plainly: yeast two-hybrid screen, AAF63623 as bait against a human heart cDNA library.
For test [3], the target named is Daxx (AB015051) (human) (UniProt Q9UER7). Put plainly: yeast two-hybrid screen, 66214pep as bait against a human heart cDNA library.

The chains behind the UniProt entries cited, without tags or fusion partners. Residues count along the entry.
UniProt P12883, residues 1200-1935: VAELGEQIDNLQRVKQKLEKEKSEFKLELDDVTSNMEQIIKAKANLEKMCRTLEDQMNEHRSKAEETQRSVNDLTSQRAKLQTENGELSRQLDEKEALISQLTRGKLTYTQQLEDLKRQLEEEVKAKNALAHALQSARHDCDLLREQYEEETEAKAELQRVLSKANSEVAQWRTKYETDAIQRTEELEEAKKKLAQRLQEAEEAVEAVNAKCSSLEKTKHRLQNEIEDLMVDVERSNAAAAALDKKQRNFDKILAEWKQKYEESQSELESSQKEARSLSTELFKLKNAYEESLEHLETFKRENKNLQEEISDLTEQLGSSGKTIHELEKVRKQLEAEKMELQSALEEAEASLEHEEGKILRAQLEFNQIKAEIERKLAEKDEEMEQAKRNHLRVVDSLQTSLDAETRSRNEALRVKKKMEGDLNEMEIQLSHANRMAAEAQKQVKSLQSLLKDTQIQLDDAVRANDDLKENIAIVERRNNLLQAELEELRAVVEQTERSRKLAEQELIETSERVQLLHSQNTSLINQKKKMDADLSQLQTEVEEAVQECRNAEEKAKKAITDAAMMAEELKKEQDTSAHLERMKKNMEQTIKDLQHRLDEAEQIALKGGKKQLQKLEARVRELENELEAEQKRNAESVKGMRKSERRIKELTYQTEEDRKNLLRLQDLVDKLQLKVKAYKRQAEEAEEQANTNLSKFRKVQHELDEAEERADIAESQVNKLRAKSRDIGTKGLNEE
UniProt P35609, residues 432-894: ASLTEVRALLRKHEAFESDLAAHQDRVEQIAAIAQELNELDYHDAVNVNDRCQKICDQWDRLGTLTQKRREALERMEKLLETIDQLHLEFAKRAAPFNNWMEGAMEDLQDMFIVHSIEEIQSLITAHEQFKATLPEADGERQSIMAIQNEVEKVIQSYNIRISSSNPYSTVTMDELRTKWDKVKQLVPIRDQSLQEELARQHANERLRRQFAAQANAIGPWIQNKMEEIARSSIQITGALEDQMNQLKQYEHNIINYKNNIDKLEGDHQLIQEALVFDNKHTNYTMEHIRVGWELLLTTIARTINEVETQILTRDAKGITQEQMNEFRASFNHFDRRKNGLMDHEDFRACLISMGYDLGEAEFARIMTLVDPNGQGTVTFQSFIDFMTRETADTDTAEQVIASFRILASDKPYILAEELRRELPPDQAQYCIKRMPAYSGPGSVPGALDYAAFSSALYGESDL
UniProt Q9UER7, residues 612-740: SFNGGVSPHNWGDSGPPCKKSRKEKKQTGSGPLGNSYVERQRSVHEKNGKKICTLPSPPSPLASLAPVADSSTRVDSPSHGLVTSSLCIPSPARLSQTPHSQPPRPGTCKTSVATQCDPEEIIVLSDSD

Drawing on patent publication US20040072170A1, this text covers binding for three molecules.

No constants are given. Whether binding was seen depends on the method and setting. Some results given as binding are weak or reduced against the parent protein; the word gives no strength.

B1: AAD45360, Apolipoprotein B mRNA editing protein 2 (APOBEC-2) (enzyme)
chain: MAQKEEAAVATEAASQNGEDLENLDDPEKLKELIELPPFEIVTGERLPANFFKFQFRNVEYSSGRNKTFLCYVVEAQGKGGQVQASRGYLEDEHAAAHAEEAFFNTILPAFDPALRYNVTWYVSSSPCAACADRIIKTLSKTKNLRLLILVGRLFMWEEPEIQAALKKLKEAGCKLRIMKPQDFEYVWQNFVEQEEGESKAFQPWEDIQENFLYYEEKLADILK
B1: the binding entry in test [1] is “binds”.

B2: AAF63623 (SMP) (protein)
chain: MLSHNTMMKQRKQQATAIMKEVHGNDVDGMDLGKKVSIPRDIMLEELSHLSNRGARLFKMRQRRSDKYTFENFQYQSRAQINHSIAMQNGKVDGSNLEGGSQQAPLTPPNTPDPRSPPNPDNIAPGYSGPLKEIPPEKFNTTAVPKYYQSPWEQAISNDPELLEALYPKLFKPEGKAELPDYRSFNRVATPFGGFEKASRMVKFKVPDFELLLLTDPRFMSFVNPLSGRRSFNRTPKGWISENIPIVITTEPTDDTTVPESEDL
For the molecule B2, in test [2], the binding result is “binds”.

B3: 66214pep (protein)
chain: MYMSKQPVSNVRAIQANINIPMGAFRPGAGQPPRRKECTPEVEEGVPPTSDEEKKPIPGAKKLPGPAVNLSEIQNIKSELKYVPKAEQ
Regarding B3, in test [3], the binding result is reported as “binds”.
